{"source": "PubChem BioAssay AID1259424 (University of Nebraska Medical Center, 2018)", "test": "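Find knockdowns that reproduce the expression shifts seen after KSR1 loss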 (primary screen)", "cells": "human HCT116 colon cancer cells", "reagents": "siRNA pool against human genes, 50 nM", "read-out": "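Six signature mRNAs by branched-DNA multiplex assay, scaled to two housekeeping genes and non-targeting median, log2; matched to mean KSR1 knockdown profile by Pearson correlation and euclidean distance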", "direction": "mean correlation with KSR1 profile: higher = expression change more like KSR1 knockdown", "note": "Here is a random part of about 14,000 reagents tested. 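Higher correlation or smaller distance means closer resemblance to KSR1 loss; control wells, including KSR1 knockdowns, recur on many plates.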 Not all columns of the deposit are shown. Reagent sequences are not shown. Not given: the time to read-out."}
{"gene":"FANCF (GeneID 2188)","mean correlation with KSR1 profile":-0.475}
{"gene":"BIK (GeneID 638)","mean correlation with KSR1 profile":-0.0379}
{"gene":"NAGK (GeneID 55577)","mean correlation with KSR1 profile":0.511}
{"gene":"JPH4 (GeneID 84502)","mean correlation with KSR1 profile":0.483}
{"gene":"TUBG2 (GeneID 27175)","mean correlation with KSR1 profile":-0.0159}
{"gene":"TRIP11 (GeneID 9321)","mean correlation with KSR1 profile":0.441}
{"gene":"INVS (GeneID 27130)","mean correlation with KSR1 profile":-0.0116}
{"gene":"AP1G1 (GeneID 164)","mean correlation with KSR1 profile":-0.434}
{"gene":"PBDC1 (GeneID 51260)","mean correlation with KSR1 profile":-0.26}
{"gene":"SNRNP35 (GeneID 11066)","mean correlation with KSR1 profile":0.096}
{"gene":"CYP2A13 (GeneID 1553)","mean correlation with KSR1 profile":0.687}
{"gene":"CARD8 (GeneID 22900)","mean correlation with KSR1 profile":-0.383}
{"gene":"MYO9A (GeneID 4649)","mean correlation with KSR1 profile":-0.342}
{"gene":"TGFBI (GeneID 7045)","mean correlation with KSR1 profile":0.628}
{"gene":"CFHR2 (GeneID 3080)","mean correlation with KSR1 profile":-0.155}
{"gene":"EXOSC5 (GeneID 56915)","mean correlation with KSR1 profile":0.466}
{"gene":"SLC8A3 (GeneID 6547)","mean correlation with KSR1 profile":-0.0502}
{"gene":"SUCNR1 (GeneID 56670)","mean correlation with KSR1 profile":-0.0394}
{"gene":"CCNY (GeneID 219771)","mean correlation with KSR1 profile":0.0464}
{"gene":"OPHN1 (GeneID 4983)","mean correlation with KSR1 profile":-0.105}
{"gene":"CDK8 (GeneID 1024)","mean correlation with KSR1 profile":0.322}
{"gene":"MSLN (GeneID 10232)","mean correlation with KSR1 profile":-0.133}
{"gene":"NEURL1 (GeneID 9148)","mean correlation with KSR1 profile":0.798}
{"gene":"NBEA (GeneID 26960)","mean correlation with KSR1 profile":-0.304}
{"gene":"PMPCA (GeneID 23203)","mean correlation with KSR1 profile":-0.0803}
{"gene":"AKR1C2 (GeneID 1646)","mean correlation with KSR1 profile":-0.613}
{"gene":"HECTD3 (GeneID 79654)","mean correlation with KSR1 profile":0.323}
{"gene":"TRDN (GeneID 10345)","mean correlation with KSR1 profile":-0.275}

Reformatted: 5 of the entries above.
gene | mean correlation with KSR1 profile
SNRNP35 (GeneID 11066) | 0.096
CYP2A13 (GeneID 1553) | 0.687
CARD8 (GeneID 22900) | -0.383
MYO9A (GeneID 4649) | -0.342
TGFBI (GeneID 7045) | 0.628
